Laboratory results from paper PMC6450627.
These are yes or no findings as the source states them, for the method shown. In cells and extracts the contact can be indirect. Some entries that bind do so weakly or less than the wild type. Sequences can lack the tags named with a protein.

Protein sequences, listed by entry. Tags and fused reporters are not part of them.
UniProt P70398: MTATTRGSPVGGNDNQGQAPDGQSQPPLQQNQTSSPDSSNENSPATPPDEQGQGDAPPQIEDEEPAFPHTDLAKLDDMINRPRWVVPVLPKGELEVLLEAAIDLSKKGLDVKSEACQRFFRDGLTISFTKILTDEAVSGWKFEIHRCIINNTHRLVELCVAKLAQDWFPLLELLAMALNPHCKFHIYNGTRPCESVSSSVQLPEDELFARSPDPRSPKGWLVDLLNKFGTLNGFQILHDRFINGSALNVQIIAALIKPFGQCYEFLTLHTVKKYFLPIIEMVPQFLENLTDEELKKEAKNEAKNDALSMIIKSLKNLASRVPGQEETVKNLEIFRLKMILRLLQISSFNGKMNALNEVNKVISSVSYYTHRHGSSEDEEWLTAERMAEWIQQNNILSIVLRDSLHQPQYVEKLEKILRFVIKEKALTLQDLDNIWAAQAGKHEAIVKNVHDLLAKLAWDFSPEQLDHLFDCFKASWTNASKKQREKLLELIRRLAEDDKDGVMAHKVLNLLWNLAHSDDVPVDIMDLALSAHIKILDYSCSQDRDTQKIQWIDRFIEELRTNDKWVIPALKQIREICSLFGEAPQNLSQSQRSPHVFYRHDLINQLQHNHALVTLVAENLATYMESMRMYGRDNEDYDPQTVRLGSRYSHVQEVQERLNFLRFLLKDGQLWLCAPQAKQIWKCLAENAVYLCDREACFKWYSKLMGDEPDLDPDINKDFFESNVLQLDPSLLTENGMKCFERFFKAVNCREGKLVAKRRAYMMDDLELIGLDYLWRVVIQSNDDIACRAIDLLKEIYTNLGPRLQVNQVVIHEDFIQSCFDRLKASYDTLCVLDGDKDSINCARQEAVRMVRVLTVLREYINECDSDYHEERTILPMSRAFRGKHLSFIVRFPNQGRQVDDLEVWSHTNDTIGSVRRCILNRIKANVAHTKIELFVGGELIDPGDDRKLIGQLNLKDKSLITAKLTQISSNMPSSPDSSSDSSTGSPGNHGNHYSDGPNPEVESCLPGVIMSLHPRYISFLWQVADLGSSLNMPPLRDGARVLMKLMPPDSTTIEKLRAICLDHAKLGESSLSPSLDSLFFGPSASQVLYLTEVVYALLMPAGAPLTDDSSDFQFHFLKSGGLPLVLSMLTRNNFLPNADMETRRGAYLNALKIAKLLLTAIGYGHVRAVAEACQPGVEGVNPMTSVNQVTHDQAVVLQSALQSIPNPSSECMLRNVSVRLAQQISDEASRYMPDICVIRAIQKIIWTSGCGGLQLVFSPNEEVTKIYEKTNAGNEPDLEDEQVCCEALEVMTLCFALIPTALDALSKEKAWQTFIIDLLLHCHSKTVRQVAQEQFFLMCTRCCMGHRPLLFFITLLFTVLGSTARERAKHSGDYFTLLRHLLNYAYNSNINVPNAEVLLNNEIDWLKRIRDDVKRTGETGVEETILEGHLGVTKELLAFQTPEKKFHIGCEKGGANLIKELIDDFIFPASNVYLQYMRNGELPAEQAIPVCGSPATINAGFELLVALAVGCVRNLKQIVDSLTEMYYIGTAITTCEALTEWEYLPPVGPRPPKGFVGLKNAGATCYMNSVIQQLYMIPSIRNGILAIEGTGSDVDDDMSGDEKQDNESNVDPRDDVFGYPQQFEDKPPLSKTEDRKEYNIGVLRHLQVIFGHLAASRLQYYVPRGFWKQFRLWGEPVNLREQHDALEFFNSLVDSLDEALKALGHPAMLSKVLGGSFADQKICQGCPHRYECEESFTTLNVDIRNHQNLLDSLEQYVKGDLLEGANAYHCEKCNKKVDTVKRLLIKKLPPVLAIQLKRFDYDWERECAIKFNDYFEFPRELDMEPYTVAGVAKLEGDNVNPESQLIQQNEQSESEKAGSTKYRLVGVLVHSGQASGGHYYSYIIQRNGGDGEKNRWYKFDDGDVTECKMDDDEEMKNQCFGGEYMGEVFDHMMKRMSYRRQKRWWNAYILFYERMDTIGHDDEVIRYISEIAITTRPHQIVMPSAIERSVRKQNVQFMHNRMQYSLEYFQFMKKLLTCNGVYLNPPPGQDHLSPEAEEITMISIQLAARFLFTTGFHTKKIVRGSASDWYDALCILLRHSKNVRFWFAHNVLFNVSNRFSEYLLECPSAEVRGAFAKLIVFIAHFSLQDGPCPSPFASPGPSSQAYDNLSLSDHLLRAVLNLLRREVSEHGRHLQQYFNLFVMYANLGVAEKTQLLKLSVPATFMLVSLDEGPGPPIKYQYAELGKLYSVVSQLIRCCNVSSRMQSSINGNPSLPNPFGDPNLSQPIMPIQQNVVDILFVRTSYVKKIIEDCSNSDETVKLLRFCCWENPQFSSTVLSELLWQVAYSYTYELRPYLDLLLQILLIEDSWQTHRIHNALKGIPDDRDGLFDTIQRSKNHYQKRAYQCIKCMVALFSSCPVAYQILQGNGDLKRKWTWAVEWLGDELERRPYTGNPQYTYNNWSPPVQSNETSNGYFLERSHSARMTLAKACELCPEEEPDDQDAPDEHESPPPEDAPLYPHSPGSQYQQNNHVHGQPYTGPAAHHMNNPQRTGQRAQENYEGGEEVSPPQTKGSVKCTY

Target: USP9X (untagged, endogenous) (mouse (endogenous in ESCs and TSCs)) (UniProt P70398)
Experiment: co-IP; USP9X antibody immunoprecipitation from Peg10^3xf/+ Usp9x^fl/y Rosa26.CreERT2 ESC lysate, tagged PEG10 detected with anti-FLAG blot; control: 4-hydroxytamoxifen to delete Usp9x

binding: binds
B1: 3xFLAG.PEG10-RF1/2 (protein, UniProt Q7TN75 1-958)
chain: MAAAGGSSNCPPPPPPPPPNNNNNNNTPKSPGVPDAEDDDERRHDELPEDINNFDEDMNRQFENMNLLDQVELLAQSYSLLDHLDDFDDDDEDDDFDPEPDQDELPEYSDDDDLELQGAAAAPIPNFFSDDDCLEDLPEKFDGNPDMLGPFMYQCQLFMEKSTRDFSVDRIRVCFVTSMLIGRAARWATAKLQRCTYLMHNYTAFMMELKHVFEDPQRREAAKRKIRRLRQGPGPVVDYSNAFQMIAQDLDWTEPALMDQFQEGLNPDIRAELSRQEAPKTLAALITACIHIERRLARDAAAKPDPSPRALVMPPNSQTDPTEPVGGARMRLSKEEKERRRKMNLCLYCGNGGHFADTCPAKASKNSPPGKLPGPAVGGPSATGPERIRSPPSEASTQHLQVMLQIHMPGRPTLFVRAMIDSGASGNFIDQDFVIQNAIPLRIKDWPVMVEAIDGHPIASGPIILETHHLIVDLGDHREILSFDVTQSPFFPIVLGIRWLSTHDPHITWSTRSIVFNSDYCRLRCRMFAQIPSNLLFTVPQPNLHPYLLHHVHPHVHPHMHQHLHQHLHQFLHPDPHQYPHPDPHYHHHQQADMQHQLQQYLYQYLYYHLYPVMHHHLPPDQHEHLHEYLHQYLHQYLHQFLHHHLHPDLHQYLYQYLHNHMNPDPHHHPHPDPPQDPHHPPHQDPHQHPDPHQDPPHQDPHQDAHQDPHMDPHLHQHQHPQPQPHPQQHPNHPQQPPFFYHMAGFRIYHPVRYYYIQNVYTPVDEHVYPGHRVVDPNIEMIPGAHSLPSGHLYSMSESEMNALRNFVDRNVKDGLMTPTVAPNGAQVLQVKRGWKLQVTYNCRAPQSGTIQNQYLRMSLPNMGDPAHLASYGEFVQVPGYPYPAYVYYTSPHMMTAWYPVGRDVHGRIIVVPVVITWSQNTNRQPPVPQYPPPQPPPPPPPPPPPPPPPPASSCSAA
